The supplement of paper PMC10849652
The other results are listed elsewhere or left out. Residues, ends and D or L forms follow the SMILES beside them. *: point of attachment. Cbz = O=C(OCc1ccccc1)*

The chains behind the UniProt entries cited, without tags or fusion partners. Where a name states a change or a piece, a line headed by the entry shows the natural chain unless it says otherwise.
UniProt P83916, whole entry, looked up: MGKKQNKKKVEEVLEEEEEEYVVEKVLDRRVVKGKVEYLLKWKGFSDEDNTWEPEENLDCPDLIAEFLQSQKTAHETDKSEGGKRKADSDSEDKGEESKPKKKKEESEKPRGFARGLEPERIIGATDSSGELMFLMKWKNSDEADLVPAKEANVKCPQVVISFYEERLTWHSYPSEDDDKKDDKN
UniProt P60033: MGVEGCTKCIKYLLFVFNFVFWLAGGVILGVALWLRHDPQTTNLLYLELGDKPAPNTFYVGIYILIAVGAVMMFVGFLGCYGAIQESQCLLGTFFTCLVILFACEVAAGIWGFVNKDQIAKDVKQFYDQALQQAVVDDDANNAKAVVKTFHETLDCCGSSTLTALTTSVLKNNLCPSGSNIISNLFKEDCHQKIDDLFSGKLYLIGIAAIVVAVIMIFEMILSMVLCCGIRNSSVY
UniProt P35520: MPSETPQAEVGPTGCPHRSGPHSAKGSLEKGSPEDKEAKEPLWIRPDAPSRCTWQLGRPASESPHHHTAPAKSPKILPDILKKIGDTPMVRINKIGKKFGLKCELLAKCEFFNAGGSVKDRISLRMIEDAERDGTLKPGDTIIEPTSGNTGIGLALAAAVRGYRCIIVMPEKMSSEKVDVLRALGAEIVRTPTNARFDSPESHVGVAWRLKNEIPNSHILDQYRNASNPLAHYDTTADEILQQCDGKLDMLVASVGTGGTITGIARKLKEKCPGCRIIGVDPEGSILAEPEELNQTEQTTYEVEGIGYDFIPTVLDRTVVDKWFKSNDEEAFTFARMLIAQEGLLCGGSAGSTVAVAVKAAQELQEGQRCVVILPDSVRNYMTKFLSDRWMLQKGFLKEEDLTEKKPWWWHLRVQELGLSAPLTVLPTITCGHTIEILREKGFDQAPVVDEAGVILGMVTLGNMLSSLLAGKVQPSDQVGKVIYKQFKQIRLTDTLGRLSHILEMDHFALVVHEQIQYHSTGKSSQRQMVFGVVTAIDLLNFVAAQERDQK
UniProt Q8NHZ8, whole entry, looked up: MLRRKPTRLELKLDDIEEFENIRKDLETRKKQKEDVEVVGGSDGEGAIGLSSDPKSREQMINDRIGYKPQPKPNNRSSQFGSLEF
UniProt Q8IX12: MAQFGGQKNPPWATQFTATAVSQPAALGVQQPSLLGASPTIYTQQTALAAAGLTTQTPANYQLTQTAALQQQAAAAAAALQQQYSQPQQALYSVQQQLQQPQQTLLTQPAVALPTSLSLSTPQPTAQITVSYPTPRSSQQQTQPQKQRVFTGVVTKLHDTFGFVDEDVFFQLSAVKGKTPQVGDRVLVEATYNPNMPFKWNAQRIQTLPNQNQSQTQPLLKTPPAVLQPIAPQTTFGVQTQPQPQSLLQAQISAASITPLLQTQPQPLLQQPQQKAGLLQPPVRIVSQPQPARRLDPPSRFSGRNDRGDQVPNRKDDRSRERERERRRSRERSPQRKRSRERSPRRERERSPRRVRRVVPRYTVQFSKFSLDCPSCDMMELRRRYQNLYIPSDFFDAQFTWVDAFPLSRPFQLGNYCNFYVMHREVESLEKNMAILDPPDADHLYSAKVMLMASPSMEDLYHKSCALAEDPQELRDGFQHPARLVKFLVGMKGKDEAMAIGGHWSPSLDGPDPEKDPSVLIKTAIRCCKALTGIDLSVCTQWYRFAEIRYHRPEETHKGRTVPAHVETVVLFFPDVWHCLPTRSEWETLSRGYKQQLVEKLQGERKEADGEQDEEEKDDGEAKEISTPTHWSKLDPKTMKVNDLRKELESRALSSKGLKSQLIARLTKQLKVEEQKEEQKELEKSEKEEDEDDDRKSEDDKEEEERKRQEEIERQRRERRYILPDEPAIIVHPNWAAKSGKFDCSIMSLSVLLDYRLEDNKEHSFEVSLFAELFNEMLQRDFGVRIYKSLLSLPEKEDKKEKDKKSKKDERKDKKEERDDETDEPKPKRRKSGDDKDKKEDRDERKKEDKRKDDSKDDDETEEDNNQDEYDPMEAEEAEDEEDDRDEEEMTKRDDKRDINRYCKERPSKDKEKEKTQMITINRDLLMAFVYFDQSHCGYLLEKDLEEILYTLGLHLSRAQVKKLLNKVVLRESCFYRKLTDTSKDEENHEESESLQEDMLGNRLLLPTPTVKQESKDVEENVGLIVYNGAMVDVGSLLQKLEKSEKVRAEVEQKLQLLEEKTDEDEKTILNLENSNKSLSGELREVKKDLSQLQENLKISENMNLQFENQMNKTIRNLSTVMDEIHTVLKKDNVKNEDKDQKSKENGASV
UniProt Q9BUN5: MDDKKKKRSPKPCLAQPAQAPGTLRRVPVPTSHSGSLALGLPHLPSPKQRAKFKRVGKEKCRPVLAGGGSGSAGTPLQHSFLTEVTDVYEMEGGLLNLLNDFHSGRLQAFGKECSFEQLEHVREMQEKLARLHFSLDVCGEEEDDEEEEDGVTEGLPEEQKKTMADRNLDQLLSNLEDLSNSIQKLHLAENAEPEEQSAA
UniProt P51636: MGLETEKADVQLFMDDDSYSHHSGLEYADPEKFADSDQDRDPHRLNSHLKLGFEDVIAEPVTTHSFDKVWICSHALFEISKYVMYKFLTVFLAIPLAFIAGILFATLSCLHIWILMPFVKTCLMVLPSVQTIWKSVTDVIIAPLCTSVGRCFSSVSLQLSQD
UniProt Q5M9N0: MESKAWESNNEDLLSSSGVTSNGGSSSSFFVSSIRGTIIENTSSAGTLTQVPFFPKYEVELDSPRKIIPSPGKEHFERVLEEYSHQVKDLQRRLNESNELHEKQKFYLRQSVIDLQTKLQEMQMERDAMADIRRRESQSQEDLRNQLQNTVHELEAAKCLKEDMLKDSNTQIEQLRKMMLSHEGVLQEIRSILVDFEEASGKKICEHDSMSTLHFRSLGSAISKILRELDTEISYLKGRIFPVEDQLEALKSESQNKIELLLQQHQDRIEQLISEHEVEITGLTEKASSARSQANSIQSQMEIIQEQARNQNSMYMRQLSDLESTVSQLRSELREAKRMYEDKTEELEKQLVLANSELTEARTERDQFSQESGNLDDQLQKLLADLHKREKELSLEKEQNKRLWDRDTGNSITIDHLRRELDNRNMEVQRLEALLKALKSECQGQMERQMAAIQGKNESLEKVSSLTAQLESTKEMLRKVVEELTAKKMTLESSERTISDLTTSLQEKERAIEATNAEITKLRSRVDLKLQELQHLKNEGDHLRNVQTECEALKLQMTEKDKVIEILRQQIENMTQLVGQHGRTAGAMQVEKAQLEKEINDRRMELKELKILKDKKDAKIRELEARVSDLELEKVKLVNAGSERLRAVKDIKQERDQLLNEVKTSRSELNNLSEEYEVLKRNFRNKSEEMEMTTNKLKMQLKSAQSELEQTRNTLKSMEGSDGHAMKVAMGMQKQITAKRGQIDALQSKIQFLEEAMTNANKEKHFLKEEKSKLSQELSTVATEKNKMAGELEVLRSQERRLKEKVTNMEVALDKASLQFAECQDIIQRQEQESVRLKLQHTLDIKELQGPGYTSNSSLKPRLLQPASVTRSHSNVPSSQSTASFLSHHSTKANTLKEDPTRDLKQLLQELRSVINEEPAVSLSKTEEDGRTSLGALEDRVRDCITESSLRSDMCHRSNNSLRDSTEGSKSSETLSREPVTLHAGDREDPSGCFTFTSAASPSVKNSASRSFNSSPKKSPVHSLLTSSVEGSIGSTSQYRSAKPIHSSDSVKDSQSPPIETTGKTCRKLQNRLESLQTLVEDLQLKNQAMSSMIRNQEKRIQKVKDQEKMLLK
UniProt P86791: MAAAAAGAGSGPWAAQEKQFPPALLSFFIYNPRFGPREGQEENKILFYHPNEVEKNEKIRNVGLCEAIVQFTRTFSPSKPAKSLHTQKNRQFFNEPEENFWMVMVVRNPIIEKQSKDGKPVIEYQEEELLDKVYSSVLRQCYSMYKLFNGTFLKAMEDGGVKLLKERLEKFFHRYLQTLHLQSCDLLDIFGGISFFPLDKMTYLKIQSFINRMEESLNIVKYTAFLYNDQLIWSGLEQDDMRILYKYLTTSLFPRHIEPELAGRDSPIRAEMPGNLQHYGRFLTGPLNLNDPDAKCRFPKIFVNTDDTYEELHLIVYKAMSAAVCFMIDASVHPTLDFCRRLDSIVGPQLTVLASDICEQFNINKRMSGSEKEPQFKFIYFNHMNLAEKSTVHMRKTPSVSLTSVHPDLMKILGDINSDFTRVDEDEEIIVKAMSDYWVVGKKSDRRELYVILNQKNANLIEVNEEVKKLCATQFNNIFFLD
UniProt Q96S94: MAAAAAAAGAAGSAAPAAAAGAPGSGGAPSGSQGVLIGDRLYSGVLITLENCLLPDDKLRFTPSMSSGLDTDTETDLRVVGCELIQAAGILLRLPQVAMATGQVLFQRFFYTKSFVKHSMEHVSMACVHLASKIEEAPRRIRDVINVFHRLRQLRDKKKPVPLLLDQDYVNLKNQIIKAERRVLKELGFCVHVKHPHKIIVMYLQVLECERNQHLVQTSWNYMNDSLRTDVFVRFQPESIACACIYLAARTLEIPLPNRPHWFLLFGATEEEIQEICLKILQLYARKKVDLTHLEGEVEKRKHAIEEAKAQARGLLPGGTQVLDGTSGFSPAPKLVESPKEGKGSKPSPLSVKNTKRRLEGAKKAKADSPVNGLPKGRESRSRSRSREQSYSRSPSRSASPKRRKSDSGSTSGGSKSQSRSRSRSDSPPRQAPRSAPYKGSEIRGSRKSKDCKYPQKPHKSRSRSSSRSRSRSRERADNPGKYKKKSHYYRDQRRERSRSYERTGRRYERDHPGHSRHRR
UniProt P30307: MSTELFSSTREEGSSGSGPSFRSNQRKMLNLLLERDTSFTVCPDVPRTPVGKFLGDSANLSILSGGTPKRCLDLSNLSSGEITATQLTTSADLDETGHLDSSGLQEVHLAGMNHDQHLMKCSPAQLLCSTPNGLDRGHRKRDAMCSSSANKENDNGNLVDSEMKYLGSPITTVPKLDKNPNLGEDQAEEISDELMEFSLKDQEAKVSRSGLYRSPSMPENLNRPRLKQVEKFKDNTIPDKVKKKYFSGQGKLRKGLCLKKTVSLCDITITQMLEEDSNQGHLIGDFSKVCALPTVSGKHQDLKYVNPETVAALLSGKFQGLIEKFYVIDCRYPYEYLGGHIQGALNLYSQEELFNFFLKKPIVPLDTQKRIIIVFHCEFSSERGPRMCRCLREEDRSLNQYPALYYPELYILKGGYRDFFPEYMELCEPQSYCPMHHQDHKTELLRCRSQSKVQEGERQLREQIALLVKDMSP

How the values were obtained:
Assay in all cases: log2 fold change, soluble protein after heating vs DMSO (PISA); higher = thermal stabilisation; K562 cells, 10 uM, 30 min; active = over 0.2 and 3.5 SD of the protein, either way, in both replicates (recomputed)
[1] = compound: C#Cc1cccc(Nc2ncnc3cc(OCCOC)c(OCCOC)cc23)c1 [erlotinib]
How it was run: (§1)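 Aliquots of K562 cells (2×10^6 cells/mL) treated with 10 μM compound for 30 min were heated for 3 min over 48°C-58°C. After pooling and extraction in PBS with 0.5% NP-40 at 4°C, soluble protein from a 21,000xg, 90 min spin was quantified by TMTpro 16plex LC-MS/MS with channel sums equalised. Thermal stability is expressed against control samples, from duplicates, as a log2 fold change.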

[2] = compound: C/C(=N\NC(=O)C1=CC(=CC=C1)S(=O)(=O)N2CCOCC2)/C3=C(C=CC(=C3)Cl)O
How it was run: as §1

[3] = compound: C1=CC(=C(C=C1Cl)C2=NC3=NC=CN=C3C(=N2)NC4=CC=NC=C4)F
How it was run: as §1

[4] = compound: C1=CC(=CC=C1C2=NC3=C(N2)C=C(C=C3)C(=O)N)OC4=CC=C(C=C4)Cl
How it was run: as §1

[5] = compound: C1=CC2=C(C=CC(=C2)/C=C\3/C(=O)NC(=NCC4=CC=CS4)S3)N=C1
How it was run: as §1

[6] = compound: C1=CC2=NC=CN=C2C=C1/C=C/3\C(=O)NC(=O)S3
How it was run: as §1

[7] = compound: C1=CC=C(C=C1)C2=NC(=C(N2)C3=CC=NC=C3)C4=CC(=C(C=C4)Cl)O
How it was run: as §1

[8] = compound: C1=CC=C2C(=C1)C3=NNC4=CC=CC(=C43)C2=O
How it was run: as §1

[9] = compound: C1CCN(C1)C(=O)NC2=CC=CC(=C2)NC3=NC=C(C(=N3)NCCC4=CN=CN4)Br
How it was run: as §1

[10] = compound: C1CN(CCC1(CC2=CC=C(C=C2)Cl)N)C3=NC=NC4=C3C=CN4
How it was run: as §1

[11] = compound: C1COCCN1CCN2C3=CC=CC=C3N=C2NC(=O)C4=CC(=CC=C4)[N+](=O)[O-] [IRAK-1-4 Inhibitor I]
How it was run: as §1

[12] = compound: C=CC(=O)N1CCC[C@@H](n2nc(-c3ccc(Oc4ccccc4)cc3)c3c(N)ncnc32)C1 [ibrutinib]
How it was run: as §1

[13] = compound: CC(=O)c1cnc2ccc(-c3cc(Cl)c(O)c(Cl)c3)nc2c1N[C@H]1CC[C@H](CN(C)C)CC1
How it was run: as §1

[14] = compound: CC(C)(C)Cn1c(N)nc2ccc(-c3[nH]c(C(C)(C)C)nc3-c3ccc(F)cc3)nc21 [ralimetinib]
How it was run: as §1

[15] = compound: CC(C)(O)CC(=O)NCCn1ccc2ncnc(Nc3ccc(Oc4cccc(C(F)(F)F)c4)c(Cl)c3)c21
How it was run: as §1

[16] = compound: CC(C)C1=C2N=C(C=C(N2N=C1)NCC3=CC=CC=C3)NCCCCCCN
How it was run: as §1

[17] = compound: CC(C)C[C@@H](C=O)NC(=O)[C@H](CC(C)C)NC(=O)[C@H](CC(C)C)NC(=O)OCc1ccccc1
How it was run: as §1

[18] = compound: CC(C)N(C[C@H]1O[C@@H](n2cnc3c(N)ncnc32)[C@H](O)[C@@H]1O)[C@H]1C[C@@H](CCc2nc3cc(C(C)(C)C)ccc3[nH]2)C1 [pinometostat]
How it was run: as §1

[19] = compound: CC1=C(C2=C(C=C1)C(=O)C3=CC=CC=C3N2CCCN)C
How it was run: as §1

[20] = compound: CC1=C(C(CC(=O)N1)C2=CC=C(C=C2)C(F)(F)F)C(=O)NC3=C(C=C4C(=C3)C=NN4)F
How it was run: as §1

Target | log2 fold change [1] | log2 fold change [2] | log2 fold change [3] | log2 fold change [4] | log2 fold change [5] | log2 fold change [6] | log2 fold change [7] | log2 fold change [8] | log2 fold change [9] | log2 fold change [10] | log2 fold change [11] | log2 fold change [12] | log2 fold change [13] | log2 fold change [14] | log2 fold change [15] | log2 fold change [16] | log2 fold change [17] | log2 fold change [18] | log2 fold change [19] | log2 fold change [20]
CBX1 (UniProt P83916) | inactive: 0.025 | inactive: -0.044 | inactive: 0.022 | inactive: 0.072 | inactive: 0.004 | inactive: 0.089 | inactive: -0.055 | inactive: -0.026 | inactive: -0.007 | inactive: -0.027 | inactive: -0.105 | inactive: -0.001 | inactive: -0.038 | inactive: -0.054 | inactive: 0.013 | inactive: 0.034 | inactive: -0.007 | inactive: -0.143 | active: -0.288 | –
CD81 (UniProt P60033) | inactive: -0.065 | inactive: 0.033 | inactive: 0.059 | inactive: 0.039 | inactive: -0.065 | inactive: 0.059 | inactive: 0.013 | inactive: -0.043 | inactive: 0.098 | inactive: 0.206 | inactive: 0.027 | inactive: 0.007 | inactive: -0.026 | inactive: -0.045 | inactive: -0.018 | inactive: 0.33 | inactive: -0.122 | inactive: -0.05 | inactive: -0.01 | –
CBS (UniProt P35520) | inactive: 0.014 | inactive: -0.031 | inactive: 0.039 | inactive: -0.014 | inactive: -0.026 | inactive: 0.013 | inactive: -0.03 | inactive: 0.052 | inactive: 0.025 | inactive: 0.042 | inactive: 0.044 | inactive: -0.007 | inactive: 0.008 | inactive: -0.01 | inactive: 0.027 | inactive: 0.036 | inactive: -0.013 | inactive: -0.048 | inactive: 0.001 | –
CDC26 (UniProt Q8NHZ8) | inactive: -0.096 | inactive: 0.16 | inactive: -0.046 | inactive: 0.034 | active: -0.542 | inactive: 0.025 | inactive: 0.355 | inactive: 0.037 | inactive: -0.137 | inactive: -0.022 | inactive: -0.014 | inactive: -0.003 | inactive: 0.099 | inactive: 0.188 | inactive: 0.007 | inactive: -0.01 | inactive: -0.04 | inactive: -0.128 | inactive: 0.049 | –
CCAR1 (UniProt Q8IX12) | inactive: 0.052 | inactive: 0.057 | inactive: -0.002 | inactive: 0.014 | inactive: 0.071 | inactive: 0.039 | inactive: -0.021 | inactive: 0.024 | inactive: 0.027 | inactive: -0.085 | inactive: 0.002 | inactive: 0.003 | inactive: -0.039 | inactive: -0.012 | inactive: -0.103 | inactive: -0.168 | inactive: 0.006 | inactive: -0.009 | inactive: 0.209 | –
CCDC28B (UniProt Q9BUN5) | inactive: -0.133 | inactive: -0.039 | – | inactive: 0.047 | inactive: 0.079 | inactive: 0.141 | – | inactive: -0.046 | inactive: 0.101 | inactive: -0.097 | – | inactive: -0.067 | inactive: -0.118 | – | – | inactive: -0.012 | – | – | inactive: -0.029 | –
CAV2 (UniProt P51636) | inactive: -0.01 | inactive: -0.066 | – | inactive: 0.076 | inactive: -0.018 | inactive: -0.559 | – | inactive: 0.057 | inactive: 0.025 | inactive: -0.021 | inactive: -0.165 | inactive: 0.105 | inactive: 0.025 | – | – | inactive: -0.073 | – | inactive: 0.178 | inactive: 0.005 | –
CCDC158 (UniProt Q5M9N0) | inactive: -0.026 | inactive: -0.116 | inactive: -0.257 | inactive: 0.1 | inactive: 0.045 | inactive: 0.03 | inactive: -0.115 | inactive: -0.043 | – | – | inactive: -0.114 | inactive: 0.041 | inactive: 0.029 | inactive: -0.003 | inactive: 0.246 | inactive: 0.075 | inactive: 0.057 | inactive: -0.063 | – | inactive: -0.068
CCZ1 (UniProt P86791) | inactive: 0.027 | inactive: 0.046 | inactive: -0.003 | inactive: 0.064 | inactive: 0.034 | inactive: -0.017 | inactive: 0.031 | inactive: 0.011 | inactive: 0.016 | inactive: 0.011 | inactive: 0.063 | inactive: -0.001 | inactive: -0.039 | inactive: -0.051 | inactive: -0.05 | active: -0.287 | inactive: 0.025 | inactive: 0.012 | inactive: 0.006 | –
CCNL2 (UniProt Q96S94) | – | – | inactive: 0.037 | – | – | – | – | – | – | – | – | – | – | – | inactive: -0.16 | – | – | – | – | inactive: -0.278
CDC25C (UniProt P30307) | – | inactive: 0.244 | inactive: -0.275 | – | inactive: -0.019 | – | – | inactive: -0.111 | inactive: -0.184 | inactive: -0.224 | – | – | inactive: -0.094 | – | inactive: 0.16 | – | – | – | inactive: 0.103 | inactive: 0.022

An excerpt from further up, as a working copy:
Target | log2 fold change [1] | log2 fold change [2] | log2 fold change [3] | log2 fold change [4] | log2 fold change [5] | log2 fold change [6] | log2 fold change [7] | log2 fold change [8] | log2 fold change [9] | log2 fold change [10] | log2 fold change [11] | log2 fold change [12] | log2 fold change [13] | log2 fold change [14] | log2 fold change [15] | log2 fold change [16] | log2 fold change [17] | log2 fold change [18] | log2 fold change [19] | log2 fold change [20]
CCZ1 (UniProt P86791) | inactive: 0.027 | inactive: 0.046 | inactive: -0.003 | inactive: 0.064 | inactive: 0.034 | inactive: -0.017 | inactive: 0.031 | inactive: 0.011 | inactive: 0.016 | inactive: 0.011 | inactive: 0.063 | inactive: -0.001 | inactive: -0.039 | inactive: -0.051 | inactive: -0.05 | active: -0.287 | inactive: 0.025 | inactive: 0.012 | inactive: 0.006 | –
CCNL2 (UniProt Q96S94) | – | – | inactive: 0.037 | – | – | – | – | – | – | – | – | – | – | – | inactive: -0.16 | – | – | – | – | inactive: -0.278
CDC25C (UniProt P30307) | – | inactive: 0.244 | inactive: -0.275 | – | inactive: -0.019 | – | – | inactive: -0.111 | inactive: -0.184 | inactive: -0.224 | – | – | inactive: -0.094 | – | inactive: 0.16 | – | – | – | inactive: 0.103 | inactive: 0.022
